# PubChem BioAssay (NCATS)
# The shares of active, inactive and inconclusive entries below differ from those in the screen. Potencies beside an inconclusive call are fits to weak or partial responses and may not hold up. The source made the active and inactive calls. The call rests on the fitted dose curve; in most records, active means well fitted cell-killing curve with a large enough effect; inconclusive means small, poorly fitted or top-dose-only effect, or effect the other way; inactive means no such curve, though single readings can be large or run the other way.
# Test: Quantitative High-Throughput drug screen in 47 multiple myeloma cell lines against the NCATS MIPE library collection: OPM1_PLB cell viability assay (AID 1918989); further: nearly all actives have a fitted effect of over 40% in size
# Details: CellTiter-Glo, 48 h; series mostly up to 45.8 µM; viability (% of control): at the top concentration
# Summary of the method: (§1)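 500 cells/well; MIPE 4.0 drugs pin-transferred; 48 h, 37C, 5% CO2. CellTiter-Glo, 5 min RT, luminescence. Controls: DMSO 100%, media 0%.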
# Potency means the concentration at half of the fitted maximal effect.
SMILES,viability (% of control),Potency
O=c1[nH]c(=O)n(C2CCCO2)cc1F (centres undefined),inactive: 130% [at 92.2 µM],
CN[C@@H](C)C(=O)N[C@H]1CN(C(=O)CC(C)C)CC[C@H]2CC[C@@H](C(=O)NC(c3ccccc3)c3ccccc3)N2C1=O,,active: 14.8 µM
CN(C)c1ccc(C2Nc3ccc4ccccc4c3C3=C2C(=O)CC(C)(C)C3)cc1Br (centres undefined),,"inconclusive: 1.48 µM [cytotoxic, partial curve, poor fit]"
OC[C@H]1O[C@@H](Oc2cc(O)cc(C=Cc3ccc(O)cc3)c2)[C@H](O)[C@@H](O)[C@H]1O,,"inconclusive: 0.0026 µM [rising, full curve, poor fit]"
CN(C)CCOC(c1ccccc1)c1ccccc1,,inconclusive: 0.001 µM
CN(CCOc1ccc(CC2SC(=O)NC2=O)cc1)c1ccccn1 (centres undefined),inactive: 127%,

# Structures listed so far with nitrogen in an aromatic ring:
SMILES,viability (% of control),Potency
O=c1[nH]c(=O)n(C2CCCO2)cc1F (centres undefined),inactive: 130% [at 92.2 µM],
CN(CCOc1ccc(CC2SC(=O)NC2=O)cc1)c1ccccn1 (centres undefined),inactive: 127%,

# Test: Quantitative High-Throughput drug screen in 47 multiple myeloma cell lines against the NCATS MIPE library collection: SKMM1_PLB cell viability assay (AID 1919863); further: nearly all actives have a fitted effect of over 35% in size
# Details: SKMM1 myeloma viability, CellTiter-Glo ATP, 48 h; viability: hits give low values
# Summary of the method: as §1
SMILES,Potency,viability
CC(C)NCC(O)COc1ccc(COCCOC(C)C)cc1 (centres undefined),"inconclusive: 4.18 µM [cytotoxic, full curve, poor fit]",
OCCN(CCO)c1nc(N2CCCCC2)c2nc(N(CCO)CCO)nc(N3CCCCC3)c2n1,"inconclusive: 18.7 µM [cytotoxic, partial curve]",
CN1CCN(Cc2ccc(NC(=O)Nc3ccc(Oc4cc(NC(=O)C5CC5)ncn4)cc3)cc2C(F)(F)F)CC1,active: 0.332 µM,
C=CCc1ccc(O)c(-c2ccc(O)c(CC=C)c2)c1,"inconclusive: 16.6 µM [cytotoxic, partial curve, poor fit]",
O=C(C1CC1)N1CC[C@@H](Cn2c(-c3ccc(-c4ccc5occc5c4)cc3)nc3cnccc32)C1,,inactive: 107%
O=c1c(O)c(-c2cc(O)c(O)c(O)c2)oc2cc(O)cc(O)c12,active: 20.9 µM,
CCOC(CN1C(=O)[C@](CC(=O)Nc2ccc(C)cc2)(NC(=O)Nc2ccc(C)cc2)c2ccccc21)OCC,,inactive: 93.3%
COC1CCC(N(C(=O)C2CCC(C)CC2)c2cc(C3=CCCCC3)sc2C(=O)O)CC1 (centres undefined),"inconclusive: 5.9 µM [cytotoxic, partial curve, poor fit]",
NC(=O)c1ncn([C@@H]2O[C@H](CO)[C@@H](O)[C@@H]2O)c1N,,inactive: 159%
CO[C@H]1/C=C\O[C@@]2(C)Oc3c(C)c(O)c4c(O)c(c5c(nc6cc(C)ccn65)c4c3C2=O)NC(=O)C(C)=CC=C[C@H](C)[C@H](O)[C@@H](C)[C@@H](O)[C@@H](C)[C@H](OC(C)=O)[C@H]1C,"inconclusive: 13.2 µM [cytotoxic, partial curve, poor fit]",
N#Cc1cc(NC(=O)Nc2nnc(-c3ccncc3)s2)ccc1-c1cn[nH]c1,"inconclusive: 13.2 µM [cytotoxic, partial curve, poor fit]",
CN(C)c1ccc(O)c2c1C[C@H]1C[C@H]3[C@H](N(C)C)C(=O)C(C(N)=O)=C(O)[C@@]3(O)C(=O)C1=C2O,"inconclusive: 26.4 µM [cytotoxic, single point]",
C=C[C@@H]1CN2CCC1C[C@@H]2C(O)c1ccnc2ccc(OC)cc12 (some centres undefined),"inconclusive: 18.7 µM [cytotoxic, partial curve, poor fit]",
CCOC(=O)N[C@@H]1CC[C@@H]2[C@@H](C1)C[C@H]1C(=O)O[C@H](C)[C@H]1[C@@H]2C=Cc1ccc(-c2cccc(F)c2)cn1,"inconclusive: 33.2 µM [cytotoxic, single point]",
N[C@@H](Cc1cc(I)c(Oc2cc(I)c(O)c(I)c2)c(I)c1)C(=O)O,,inactive: 121%
CCC(=O)N[C@H]1CC[C@H](C(=O)N(C)c2ccc(-c3nc4ccccc4o3)cc2)C1,,inactive: 132%
COc1ccccc1OCCNCC(O)COc1cccc2[nH]c3ccccc3c12 (centres undefined),"inconclusive: 5.26 µM [cytotoxic, full curve, poor fit]",
CC1(C)CCC(C)(C)c2cc(NC(=O)c3ccc(C(=O)O)cc3)ccc21,active: 14.8 µM,
CCCCCCCCCC(=O)N[C@@H](Cc1c[nH]c2ccccc12)C(=O)N[C@H](CC(N)=O)C(=O)N[C@@H](CC(=O)O)C(=O)N[C@@H]1C(=O)NCC(=O)N[C@@H](CCCN)C(=O)N[C@@H](CC(=O)O)C(=O)N[C@H](C)C(=O)N[C@@H](CC(=O)O)C(=O)NCC(=O)N[C@H](CO)C(=O)N[C@@H]([C@@H](C)CC(=O)O)C(=O)N[C@@H](CC(=O)c2ccccc2N)C(=O)O[C@@H]1C,,inactive: 145%
CCC[C@@H](NC(=O)[C@@H]1[C@H]2CCC[C@@H]2CN1C(=O)[C@@H](NC(=O)[C@@H](NC(=O)c1cnccn1)C1CCCCC1)C(C)(C)C)C(=O)C(=O)NC1CC1,"inconclusive: 23.5 µM [cytotoxic, single point]",
CNc1nc(Nc2ccc(C(=O)N3CCOCC3)cc2OC)ncc1Cl,,inactive: 112%
CC(=O)O[C@]1(C(C)=O)CC[C@H]2[C@@H]3C=C(Cl)C4=CC(=O)[C@@H]5C[C@H]5[C@]4(C)[C@@H]3CC[C@@]21C,"inconclusive: 0.0047 µM [rising, full curve, poor fit]",
O=c1[nH]c(=O)n(C2CCCO2)cc1F (centres undefined),"inconclusive: 6.79 µM [cytotoxic, partial curve, poor fit]",
CN[C@@H](C)C(=O)N[C@H]1CN(C(=O)CC(C)C)CC[C@H]2CC[C@@H](C(=O)NC(c3ccccc3)c3ccccc3)N2C1=O,"inconclusive: 18.7 µM [cytotoxic, partial curve, poor fit]",
CN(C)c1ccc(C2Nc3ccc4ccccc4c3C3=C2C(=O)CC(C)(C)C3)cc1Br (centres undefined),"inconclusive: 20.9 µM [cytotoxic, partial curve, poor fit]",
OC[C@H]1O[C@@H](Oc2cc(O)cc(C=Cc3ccc(O)cc3)c2)[C@H](O)[C@@H](O)[C@H]1O,"inconclusive: 0.296 µM [rising, full curve, poor fit]",
CN(C)CCOC(c1ccccc1)c1ccccc1,,inactive: 119%
CN(CCOc1ccc(CC2SC(=O)NC2=O)cc1)c1ccccn1 (centres undefined),,inactive: 112%
